The numbers were not newly measured in patent US11590205B2, “Methods for producing stable therapeutic glucagon formulations in aprotic polar solvents” (Xeris Pharmaceuticals, Inc., priority 2015, dated 2023), which cites them from elsewhere.

For the data set the following is noted: no formulation excipients, accelerated storage conditions (40° C., 75% RH).

For the molecule `CN1C(=O)CN=C(c2ccccc2)c2cc(Cl)ccc21` [diazepam], the “duration of stability in DMSO and NMP” value is “at least 6 months”.
